This note sets out measurements from patent publication US20220204643A1.

Read-outs that look alike come from different tables or passages of the source. No constants are given. Whether binding was seen depends on the method and setting. Some results given as binding are weak or reduced against the parent protein; the word gives no strength.

Test [1] deals with T1, leucine rich repeat containing 14, transcript variant 1 (human) (UniProt Q15048).
T1 sequence: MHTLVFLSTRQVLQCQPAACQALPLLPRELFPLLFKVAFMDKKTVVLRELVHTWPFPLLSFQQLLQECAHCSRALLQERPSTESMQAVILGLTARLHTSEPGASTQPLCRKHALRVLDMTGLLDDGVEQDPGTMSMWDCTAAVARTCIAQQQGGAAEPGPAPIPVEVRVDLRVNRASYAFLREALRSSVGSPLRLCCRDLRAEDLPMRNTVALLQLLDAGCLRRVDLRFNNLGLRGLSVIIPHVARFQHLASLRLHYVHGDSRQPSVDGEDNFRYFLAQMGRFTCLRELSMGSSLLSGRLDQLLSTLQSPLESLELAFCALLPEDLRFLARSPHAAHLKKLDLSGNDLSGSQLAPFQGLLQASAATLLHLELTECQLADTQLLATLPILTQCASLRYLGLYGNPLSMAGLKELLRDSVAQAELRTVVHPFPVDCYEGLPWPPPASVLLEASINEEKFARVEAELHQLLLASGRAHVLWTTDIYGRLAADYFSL
Kind of test: protein array.

Test [2] deals with T2, regulator of G protein signaling 14, transcript variant 1 (human) (UniProt O43566).
T2 sequence: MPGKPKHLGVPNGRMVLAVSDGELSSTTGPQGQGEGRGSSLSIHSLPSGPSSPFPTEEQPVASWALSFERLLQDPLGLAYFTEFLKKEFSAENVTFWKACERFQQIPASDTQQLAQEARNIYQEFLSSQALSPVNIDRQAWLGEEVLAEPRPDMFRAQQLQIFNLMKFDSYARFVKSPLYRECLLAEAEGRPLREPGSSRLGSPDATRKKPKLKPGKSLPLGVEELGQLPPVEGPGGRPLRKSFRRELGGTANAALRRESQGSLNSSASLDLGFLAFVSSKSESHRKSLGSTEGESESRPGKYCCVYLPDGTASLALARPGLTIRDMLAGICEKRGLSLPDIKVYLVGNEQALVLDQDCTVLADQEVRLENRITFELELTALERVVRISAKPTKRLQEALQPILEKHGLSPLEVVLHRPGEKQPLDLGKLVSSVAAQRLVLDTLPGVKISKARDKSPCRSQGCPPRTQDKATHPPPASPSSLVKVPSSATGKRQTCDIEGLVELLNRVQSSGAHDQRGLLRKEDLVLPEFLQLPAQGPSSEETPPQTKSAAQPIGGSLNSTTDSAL
Kind of test: protein array.

Test [3] deals with T1, leucine rich repeat containing 14, transcript variant 1 (human).
Test [4] deals with T2, regulator of G protein signaling 14, transcript variant 1 (human).
Test [5] deals with T3, RP2 activator of ARL3 GTPase (human) (UniProt O75695).
T3 sequence: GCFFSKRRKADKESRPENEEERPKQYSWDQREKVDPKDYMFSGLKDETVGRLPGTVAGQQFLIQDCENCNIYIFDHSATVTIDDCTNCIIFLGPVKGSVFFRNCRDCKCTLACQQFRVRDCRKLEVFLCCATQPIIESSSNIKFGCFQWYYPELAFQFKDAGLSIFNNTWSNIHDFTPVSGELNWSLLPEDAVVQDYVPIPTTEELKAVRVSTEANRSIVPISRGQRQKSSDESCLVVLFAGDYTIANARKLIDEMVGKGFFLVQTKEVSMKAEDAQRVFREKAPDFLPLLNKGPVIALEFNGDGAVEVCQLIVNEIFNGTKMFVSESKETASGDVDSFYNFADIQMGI
Kind of test: protein array.

The target in test [6] is T3, RP2 activator of ARL3 GTPase (human).
Test [7] has as its target T4, thioesterase superfamily member 6, transcript variant 1 (human) (UniProt Q8WUY1).
T4 sequence: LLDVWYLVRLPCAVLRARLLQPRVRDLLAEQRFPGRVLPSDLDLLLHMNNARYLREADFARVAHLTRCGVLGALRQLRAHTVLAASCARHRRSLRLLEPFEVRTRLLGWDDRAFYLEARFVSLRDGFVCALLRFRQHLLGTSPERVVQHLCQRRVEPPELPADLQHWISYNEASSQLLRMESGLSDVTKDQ
Kind of test: protein array.

In test [8] the target is T4, thioesterase superfamily member 6, transcript variant 1 (human).
Test [9] addresses Caspase 8 (human) (UniProt Q14790). Description: protein array.
Test [10] shares this target.
In test [11] the target is DIX domain containing 1, transcript variant 2 (human) (UniProt Q155Q3). Description: protein array.
Test [12] shares this target.
Test [13] concerns the target heat shock protein family E (Hsp10) member 1 (human) (UniProt P61604). Description: protein array.
The target is the same in test [14].
For test [15], the target named is T5, Zinc finger protein 260 (human) (UniProt Q3ZCT1).
T5 sequence: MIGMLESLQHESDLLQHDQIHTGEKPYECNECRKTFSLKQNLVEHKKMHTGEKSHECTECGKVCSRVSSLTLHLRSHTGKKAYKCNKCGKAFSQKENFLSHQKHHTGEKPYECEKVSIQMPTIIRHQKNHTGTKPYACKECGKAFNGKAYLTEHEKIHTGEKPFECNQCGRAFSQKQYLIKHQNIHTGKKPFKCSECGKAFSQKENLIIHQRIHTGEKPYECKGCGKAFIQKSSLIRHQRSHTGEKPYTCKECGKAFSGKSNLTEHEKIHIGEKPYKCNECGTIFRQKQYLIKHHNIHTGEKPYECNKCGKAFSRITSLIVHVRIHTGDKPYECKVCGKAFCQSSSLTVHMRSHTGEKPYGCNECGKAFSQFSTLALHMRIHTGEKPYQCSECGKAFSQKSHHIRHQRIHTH
Kind of test: protein array.

Test [16] deals with T6, disheveled segment polarity protein 3 (human) (UniProt Q92997).
T6 sequence: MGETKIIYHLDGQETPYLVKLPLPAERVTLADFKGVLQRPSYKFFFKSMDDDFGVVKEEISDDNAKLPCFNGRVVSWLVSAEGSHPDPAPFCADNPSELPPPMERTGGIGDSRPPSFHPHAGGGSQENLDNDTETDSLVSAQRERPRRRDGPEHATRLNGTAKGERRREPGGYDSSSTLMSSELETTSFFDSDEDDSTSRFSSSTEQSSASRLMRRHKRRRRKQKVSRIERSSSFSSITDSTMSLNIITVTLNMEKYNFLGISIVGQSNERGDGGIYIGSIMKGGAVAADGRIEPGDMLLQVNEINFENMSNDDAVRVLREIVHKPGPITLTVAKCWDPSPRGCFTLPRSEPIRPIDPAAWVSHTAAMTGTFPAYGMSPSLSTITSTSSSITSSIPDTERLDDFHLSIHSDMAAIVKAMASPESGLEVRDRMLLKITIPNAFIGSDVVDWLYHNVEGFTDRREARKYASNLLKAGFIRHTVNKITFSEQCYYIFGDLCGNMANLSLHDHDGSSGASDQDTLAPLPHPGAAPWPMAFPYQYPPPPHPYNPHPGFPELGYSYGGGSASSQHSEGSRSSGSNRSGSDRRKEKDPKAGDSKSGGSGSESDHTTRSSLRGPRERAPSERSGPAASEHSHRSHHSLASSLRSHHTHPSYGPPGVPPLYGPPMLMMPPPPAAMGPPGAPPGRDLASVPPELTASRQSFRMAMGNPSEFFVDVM
Description: protein array.

Test [17] addresses T5, Zinc finger protein 260 (human).
Test [18] deals with T7, dishevelled segment polarity protein 3 (human) (UniProt Q92997).
T7 sequence: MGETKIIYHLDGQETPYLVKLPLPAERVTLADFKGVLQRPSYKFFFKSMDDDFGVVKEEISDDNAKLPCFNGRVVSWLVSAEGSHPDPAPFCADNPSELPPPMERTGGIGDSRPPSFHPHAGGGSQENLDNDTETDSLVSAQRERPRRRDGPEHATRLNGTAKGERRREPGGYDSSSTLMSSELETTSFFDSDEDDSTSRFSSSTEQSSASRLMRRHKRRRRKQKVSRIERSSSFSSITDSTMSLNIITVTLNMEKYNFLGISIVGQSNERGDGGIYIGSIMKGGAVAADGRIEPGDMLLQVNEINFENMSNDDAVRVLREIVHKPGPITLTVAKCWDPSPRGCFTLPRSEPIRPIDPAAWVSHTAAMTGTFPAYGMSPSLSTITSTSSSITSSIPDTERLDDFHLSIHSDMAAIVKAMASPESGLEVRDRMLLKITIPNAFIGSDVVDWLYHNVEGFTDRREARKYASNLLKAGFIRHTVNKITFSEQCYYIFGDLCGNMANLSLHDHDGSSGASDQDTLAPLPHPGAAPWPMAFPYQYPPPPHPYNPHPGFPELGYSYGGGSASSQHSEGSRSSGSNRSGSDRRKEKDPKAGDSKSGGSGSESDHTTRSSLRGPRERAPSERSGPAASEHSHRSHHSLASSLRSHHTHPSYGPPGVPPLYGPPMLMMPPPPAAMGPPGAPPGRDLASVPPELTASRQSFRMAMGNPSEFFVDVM

Test [19] addresses T8, Cytochrome b5 reductase 2 (human) (UniProt Q6BCY4).
T8 sequence: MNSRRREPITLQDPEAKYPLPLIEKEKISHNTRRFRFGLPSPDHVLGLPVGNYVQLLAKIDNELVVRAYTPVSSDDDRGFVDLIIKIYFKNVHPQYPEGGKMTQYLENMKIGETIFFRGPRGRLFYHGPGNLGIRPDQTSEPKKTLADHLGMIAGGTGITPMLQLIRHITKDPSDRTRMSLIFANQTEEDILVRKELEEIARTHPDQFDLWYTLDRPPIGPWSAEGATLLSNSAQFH
Description: protein array.

Test [20] addresses T8, Cytochrome b5 reductase 2 (human).

B1: TSTO1007 (antibody, V domains shown)
VH: PVQLVQSGAQVKKPGASVRLSCKSSGYTFSNYAIHWLRQAPGQRLEWVGWIHVGNDHTRYSQSFQGRVTISADTSANTAYMEVRGLRSEDTSLFYCARAGAEGVDYWGQGTQVTVSS
VL: RSVLTQPPSASGTPGQTVTISCSGSRSNIGSNFVYWYQHLPGSAPKTTIHSNTQRPPGVPDRFSGSKSGTSASLAISGLRSEDEADYYCVTWDDDLHGWVFGGGTRLTVLG
For B1, the binding result in test [1], in [2], in test [3] and in [4] was “binds” each time.

B2: TUVM1001 (antibody, V domains shown)
VH: SVQLVESGGGVVQPGRSLRLSCAASGFTFSDYGMHWVRQAPGKGLEWVAVIWYDGSNEYYADSVKGRFTISRDNSKNTVYLQMNSLGAEDTAVYYCARDDVPRGYDYWGQGTLVTVSS
VL: VIQMTQSPSSLSASVGDRVTIACRASQGIRNDLGWYQQKPGRAPKLLIYAASTLQSGVPSRFSGSGSGTDFTLTIYSLQPEDFATYYCLQNYNYPWTFGQGTKVEIQG
On to B2, for which the binding entry in test [5] and in test [6] was “binds” throughout.

B3: TCER1007 (antibody, V domains shown)
VH: PVQLQESGPGLVKPSETLSLTCTVSGGSIDSYYWSWLRQPPGRGLEWIGYIFYSGITNYSPSLKSRVTISVDTSKNQFSLKLNSVTAADTAVYYCARELPVIGRRTFDIWGQGTMVTVSS
VL: DIQMTQSPSSLSASVGDRVTITCRASQTISTYLNWYQQKPGKAPKLLIYAASSLQSGVPSRFSGSGSETDFTLTISSLQPEDFATYYCQQSYNARTFGQGTKVEIKR
Regarding B3, the binding result in test [7] and in test [8] was “binds” in each case.

B4: TTES1002 (antibody, V domains shown)
VH: QVQLQESGPGLVKPSETLSLICTVSGASVNSGTHFWSWIRQPPGKGLEWIGYVYYSGNTNYNPSLKSRVAISVDTSKNQFSLKLTSVTSADTAVYYCARDFDDGYDIRYWGQGTRVSVSS
VL: QSALTQPASVSGSPGQSITISCTGSSNDIGRYKYVSWFQHHPGRAPKLIIYEVNNRPSGLSHRFSGSKSGNTASLTISGLQAEDEADYYCCSYTSSLTYVFGTGTAVTVL
Regarding B4, the binding result in test [9] and in test [10] was “binds” throughout.

B5: TTHY1001 (antibody, V domains shown)
VH: EVQLLESGGGLVQPGGSLRLSCVASGFTFASYGMAWVRQAPGQGLTWICFVGSGDTTHYAESVKGRFTCSRDNSNNTLYLHMSGLRGADTAKYYCAKPNSPFTGSGSFHNYFDYWGQGALVIVSS
VL: DIQMTQSPSSLSASVGDRVTFTCRASQNIRNNLAWYQLKPGKAPQLLIYSASSLETGVPSRFSGSGSGTDFTLAISSLQPEDFATYYCQQAHGFPITFGQGS
On to B5, for which the binding result in test [11] and in test [12] was “binds” in each case.

B6: TBRE1049 (antibody, V domains shown)
VH: PVQLVQSGAEVKKPGESLKISCKGSGYSFTTYWIGWVRQMPGKGLEWMGIIYPGDSDTRYSPSFQGQVTISADKSISTAYLQWNSLKASDTAMYYCAMDNSGSGGVDYWGQGTLVTVSS
VL: LYELTQPPSVSVSPGQTARITCSGDALPKKYAYWYQQKSGQAPVLVIYEDSKRPSGIPERFSGSSSGTMATLTISGAQVEDEADYYCYSTDSSGNHGVFGGGTKLTVLG
Regarding B6, the binding entry in [13] and in test [14] was “binds” each time.

B7: TCER1005 (antibody, V domains shown)
VH: AVQLVQSGAEVKKPGESLKISCRGSGYNFISHWISWVRQMPGKGLEWQWLGRIDPSDSYTNYSPSFRGHVTISVDKSVNTAYLQWNSLKASDTAMYYCARLSRDGYTIEHFDYWGQGTLVTVSS
VL: EIVLTQSPGTLSLSPGERATLSCRASQSVSSSYLAWYQQKPGQAPRLLIYDASSRAAGVPDRFSGSGSGTDFTLTISRLEPEDFAVYFCQQYDSSPPMYTFGQGTKLEIRR
With B7, the binding entry in [15], in [16], in test [17] and in [18] was “binds” throughout.

B8: TTES1005 (antibody, V domains shown)
VH: QLQLQESGPGLVKPSETLSLTCTVAGDSISRSNYYWAWIRQPPGKGLEWIGSIIHTGTTYHNPSLRSRGTILVDTSKNQFSLKLSSVTAADTGLYYCARHSGHDQLPLDFDNWGQGTLVTVSS
VL: ENVLTQSPGTLSLSPGERATLSCRASQRVNSNYLAWYQQKSGQAPRLLIYGASSRATGIPDRFSGSGSGTDFTLTISRLEPEDFAVYYCQQYGGSPLFTFGPGTKVDIKR
For the molecule B8, the binding entry in [19] and in test [20] was “binds” throughout.
